Laboratory results as given in publication PMC9144050.
These are yes or no findings as the source states them, for the method shown. In cells and extracts the contact can be indirect. Some entries that bind do so weakly or less than the wild type. For some of these results: Sequences can lack the tags named with a protein. Blank lines part the entries; values can stand above or below the molecule they belong to.

By UniProt entry, the sequences of proteins in these tests, tags left out.
UniProt P25911: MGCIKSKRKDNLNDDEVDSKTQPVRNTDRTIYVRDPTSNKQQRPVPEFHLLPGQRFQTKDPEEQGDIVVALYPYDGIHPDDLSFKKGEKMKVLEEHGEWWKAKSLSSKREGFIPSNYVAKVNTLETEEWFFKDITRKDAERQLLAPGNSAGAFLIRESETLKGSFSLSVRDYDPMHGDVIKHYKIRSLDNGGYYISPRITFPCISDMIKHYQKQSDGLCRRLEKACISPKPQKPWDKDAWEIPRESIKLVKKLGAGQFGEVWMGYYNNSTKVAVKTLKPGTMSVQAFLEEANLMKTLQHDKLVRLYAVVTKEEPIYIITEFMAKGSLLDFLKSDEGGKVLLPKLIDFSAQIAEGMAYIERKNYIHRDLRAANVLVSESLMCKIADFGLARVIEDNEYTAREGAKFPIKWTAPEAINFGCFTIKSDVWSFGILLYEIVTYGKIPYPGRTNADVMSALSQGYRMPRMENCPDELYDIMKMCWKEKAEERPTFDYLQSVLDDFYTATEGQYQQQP
UniProt Q8VDZ4: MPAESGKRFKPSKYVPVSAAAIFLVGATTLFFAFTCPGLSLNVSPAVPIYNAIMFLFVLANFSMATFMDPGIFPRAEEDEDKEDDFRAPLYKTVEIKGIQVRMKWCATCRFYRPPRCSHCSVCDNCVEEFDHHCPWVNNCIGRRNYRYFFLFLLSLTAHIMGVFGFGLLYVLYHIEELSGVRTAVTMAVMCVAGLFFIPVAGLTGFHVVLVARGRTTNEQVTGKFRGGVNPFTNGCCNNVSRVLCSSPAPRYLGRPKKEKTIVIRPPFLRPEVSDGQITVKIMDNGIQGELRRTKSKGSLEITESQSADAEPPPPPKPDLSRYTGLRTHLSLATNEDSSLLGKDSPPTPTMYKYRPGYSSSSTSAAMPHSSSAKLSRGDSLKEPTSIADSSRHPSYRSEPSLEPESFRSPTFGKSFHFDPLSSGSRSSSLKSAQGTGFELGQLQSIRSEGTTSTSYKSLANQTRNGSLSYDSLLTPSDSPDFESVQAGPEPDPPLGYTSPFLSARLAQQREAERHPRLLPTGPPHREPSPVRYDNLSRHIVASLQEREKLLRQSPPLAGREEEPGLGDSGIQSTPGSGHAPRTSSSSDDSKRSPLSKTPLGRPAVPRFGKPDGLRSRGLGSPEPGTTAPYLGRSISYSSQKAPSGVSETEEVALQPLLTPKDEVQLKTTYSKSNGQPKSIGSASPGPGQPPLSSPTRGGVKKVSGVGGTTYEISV
UniProt Q08857: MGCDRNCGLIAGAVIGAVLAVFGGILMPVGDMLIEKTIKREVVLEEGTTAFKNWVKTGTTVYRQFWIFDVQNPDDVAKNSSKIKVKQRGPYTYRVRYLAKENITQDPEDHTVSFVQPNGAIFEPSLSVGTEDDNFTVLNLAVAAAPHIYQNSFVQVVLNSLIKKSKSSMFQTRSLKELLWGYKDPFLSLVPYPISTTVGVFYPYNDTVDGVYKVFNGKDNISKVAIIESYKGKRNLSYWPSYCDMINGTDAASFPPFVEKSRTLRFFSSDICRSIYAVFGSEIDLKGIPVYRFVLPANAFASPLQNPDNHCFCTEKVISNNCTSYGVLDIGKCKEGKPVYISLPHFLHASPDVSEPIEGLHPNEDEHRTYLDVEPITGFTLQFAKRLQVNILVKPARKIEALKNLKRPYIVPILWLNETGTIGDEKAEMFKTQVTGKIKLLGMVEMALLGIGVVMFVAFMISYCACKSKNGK
UniProt P39688: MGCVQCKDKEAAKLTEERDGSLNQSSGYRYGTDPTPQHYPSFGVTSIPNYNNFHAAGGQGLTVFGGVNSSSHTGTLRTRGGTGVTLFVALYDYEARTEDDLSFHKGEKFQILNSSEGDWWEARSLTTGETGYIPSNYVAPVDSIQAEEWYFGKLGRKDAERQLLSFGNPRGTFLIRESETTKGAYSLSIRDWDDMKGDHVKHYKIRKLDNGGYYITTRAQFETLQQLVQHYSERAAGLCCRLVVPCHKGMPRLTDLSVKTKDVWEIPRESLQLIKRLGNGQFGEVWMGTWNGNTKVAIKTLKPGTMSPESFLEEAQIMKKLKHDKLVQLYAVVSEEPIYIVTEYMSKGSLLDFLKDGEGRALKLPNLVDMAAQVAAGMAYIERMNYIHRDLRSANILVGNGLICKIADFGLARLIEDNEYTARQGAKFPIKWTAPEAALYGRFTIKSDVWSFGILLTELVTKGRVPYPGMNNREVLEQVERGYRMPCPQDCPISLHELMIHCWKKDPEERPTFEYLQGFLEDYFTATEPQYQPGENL

What was measured:
[1] = molecular target: Lyn (mouse (endogenous in RAW264.7)) (UniProt P25911); assay: co-IP; RAW264.7 cells untreated or treated with HDL or oxHDL (80 ug/ml, 24 h), also oxHDL with 2-BP (100 uM); RIPA lysates immunoprecipitated with anti-Lyn antibody and Protein A/G Sepharose at 4 °C; blots for CD36, Fyn and Lyn
[2] = molecular target: T1, DHHC6 (Asp-His-His-Cys) acyltransferase (mouse (endogenous in RAW264.7)) (UniProt Q9CPV7); assay: co-IP; RAW264.7 cells treated with HDL or oxHDL; RIPA lysates immunoprecipitated with DHHC4, DHHC5 or DHHC6 antibody and Protein A/G Sepharose at 4 °C; blots for CD36 and the DHHCs
T1 sequence: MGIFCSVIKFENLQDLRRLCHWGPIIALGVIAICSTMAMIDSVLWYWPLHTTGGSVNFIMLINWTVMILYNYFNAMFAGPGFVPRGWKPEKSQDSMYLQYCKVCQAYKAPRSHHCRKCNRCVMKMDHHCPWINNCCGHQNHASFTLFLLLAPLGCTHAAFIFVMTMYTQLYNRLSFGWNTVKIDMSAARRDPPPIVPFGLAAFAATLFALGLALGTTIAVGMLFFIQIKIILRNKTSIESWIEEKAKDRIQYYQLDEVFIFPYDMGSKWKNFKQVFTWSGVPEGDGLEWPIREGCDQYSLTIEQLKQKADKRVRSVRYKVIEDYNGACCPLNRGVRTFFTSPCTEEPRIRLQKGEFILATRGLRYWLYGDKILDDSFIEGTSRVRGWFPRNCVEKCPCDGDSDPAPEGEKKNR

[3] = molecular target: T2, DHHC4 (mouse (endogenous in RAW264.7)) (UniProt Q9D6H5); assay: as above
T2 sequence: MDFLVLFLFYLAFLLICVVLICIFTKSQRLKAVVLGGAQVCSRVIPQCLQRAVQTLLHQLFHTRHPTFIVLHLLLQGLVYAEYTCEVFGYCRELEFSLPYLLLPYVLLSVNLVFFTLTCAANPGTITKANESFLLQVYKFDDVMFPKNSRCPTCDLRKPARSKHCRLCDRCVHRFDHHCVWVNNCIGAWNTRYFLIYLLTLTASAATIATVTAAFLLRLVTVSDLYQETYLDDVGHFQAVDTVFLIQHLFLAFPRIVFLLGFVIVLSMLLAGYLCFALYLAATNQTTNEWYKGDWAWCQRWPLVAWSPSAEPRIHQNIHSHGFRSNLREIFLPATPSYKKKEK

[4] = molecular target: DHHC5 (mouse (endogenous in RAW264.7)) (UniProt Q8VDZ4); assay: as above
[5] = molecular target: Cluster of differentiation 36 (CD36) (mouse (endogenous in RAW264.7)) (UniProt Q08857); assay: co-IP; RAW264.7 cells treated with HDL or oxHDL; RIPA lysates immunoprecipitated for CD36, Protein A/G Sepharose at 4 °C; blot for Cav-1
[6] = molecular target: T1, DHHC6 (Asp-His-His-Cys) acyltransferase (mouse (endogenous in RAW264.7)); assay: co-IP; RAW264.7 cells treated with HDL or oxHDL; RIPA lysates precipitated for DHHC6, Protein A/G Sepharose at 4 °C; blot for SelK

binding [1]: binds | binding [2]: binds | binding [3]: binds | binding [4]: binds
Molecule: Cluster of differentiation 36 (CD36) (from UniProt Q08857 1-472) (receptor)

binding [1]: binds
Molecule: Fyn (from UniProt P39688 1-537) (enzyme)

binding [5]: binds
B1: Caveolin-1 (Cav-1) (protein, UniProt P49817 1-178)
chain: MSGGKYVDSEGHLYTVPIREQGNIYKPNNKAMADEVTEKQVYDAHTKEIDLVNRDPKHLNDDVVKIDFEDVIAEPEGTHSFDGIWKASFTTFTVTKYWFYRLLSTIFGIPMALIWGIYFAILSFLHIWAVVPCIKSFLIEIQCISRVYSIYVHTFCDPLFEAIGKIFSNIRISTQKEI

binding [6]: binds
B2: Selenoprotein K (SelK) (protein, UniProt Q9JLJ1 1-94)
chain: MVYISNGQVLDSRNQSPWRVSFLTDFFWGIAEFVVFFFKTLLQQDVKKRRGYGSSSDSRYDDGRGPPGNPPRRMGRISHLRGPSPPPMAGGUGR
